For assay [1], the target named is MBP-strep-tag-SpoIIEcyt fusion protein (cytoplasmic part of SpoIIE, domains II and III) (B. subtilis 168) (UniProt P37475). The experiment in a line: transmission electron microscopy; ms-SpoIIEcyt after incubation with 5 mM EDTA; both purified.
Assay [2] shares this target. The experiment in a line: co-sedimentation; 10 μM ms-SpoIIEcyt in 50 mM MES/NaOH pH 6.5, 50 mM KCl with 1 mM EDTA (20 min), or with 10 mM EDTA added after the MnCl2 step (40 min); spun at 186,000 x g, supernatant and pellet on SDS-PAGE; both purified.

No constants are given. Whether binding was seen depends on the method and setting. Where a sequence is shown, tags or fusion partners need not be part of it.

B1: MBP-strep-tag-SpoIIEcyt fusion protein (cytoplasmic part of SpoIIE, domains II and III) (domain or fragment, B. subtilis 168, UniProt P37475 326-827, looked up)
chain: RKVARYIPGTVEHLQEQQQYARKIRDVTAQKVDQFSNVFHALSESFATFYQASDEQTDDSEVDLFLSKITEHSCQTCYKKNRCWVQNFDKTYDLMKQVMLETEEKEYASNRRLKKEFQQYCSKSKQVEELIEDELAHHHAHLTLKKKVQDSRRLVAEQLLGVSEVMADFSREIKREREQHFLQEEQIIEALQHFGIEIQHVEIYSLEQGNIDIEMTIPFSGHGESEKIIAPMLSDILEEQILVKAEQHSPHPNGYSHVAFGSTKSYRVSTGAAHAAKGGGLVSGDSYSMMELGARKYAAAISDGMGNGARAHFESNETIKLLEKILESGIDEKIAIKTINSILSLRTTDEIYSTLDLSIIDLQDASCKFLKVGSTPSFIKRGDQVMKVQASNLPIGIINEFDVEVVSEQLKAGDLLIMMSDGIFEGPKHVENHDLWMKRKMKGLKTNDPQEIADLLMEEVIRTRSGQIEDDMTVVVVRIDHNTPKWASIPVPAIFQNKQEIS
notes: SpoIIE of Bacillus subtilis 168, domains II and III (cytoplasmic part), amino acids 326-827; called a 501 residue fragment; Order on the chain: MBP (from pMalC2x), short strep-tag, SpoIIE 326-827; Co-purifies with about 2 Fe per protein; also called ms-SpoIIEcyt; source: E. coli BL21-RIL, purified (amylose resin, eluted with maltose); not shown: MBP, N-terminal, kept; strep-tag, N-terminal, kept
In the case of B1, the binding entry in assay [1] was “no binding (condition: with 5 mM EDTA)”; in assay [2], “no binding (condition: with 1 mM EDTA (10 μM protein))”.

(Values after article PMC5373596, “Metal-dependent SpoIIE oligomerization stabilizes FtsZ during asymmetric division in Bacillus subtilis” (PLoS ONE, 2017).)
